Data: PubChem BioAssay AID1347131 (National Center for Advancing Translational Sciences (NCATS), 2019)
About 2,000 (0.49%) of roughly 410,000 compounds were called active. The shares of active, inactive and inconclusive entries below differ from those in the screen. Calls come from the whole dose curve; tested in HEK293 reporter line. Potencies of inconclusive entries are doubtful fits and often do not repeat.

test: qHTS Assay for Foot and Mouth Disease Virus Antivirals: Primary Screen against the MLPCN compound library; conditions: FMDV antiviral cell-based qHTS; activity, negative = inhibition: at 57.9 µM (top of the series); note: nearly all actives have a fitted effect of over 55% in size
Potency is the fitted concentration of half-maximal effect.

Row | SMILES | Potency | activity, negative = inhibition
1 | COc1ccc(-c2ocnc2C(=O)NCc2nn(-c3ccccc3)nc2C)cc1 | inconclusive: 14.1 µM [inhibitor, single point] | –
2 | O=C(CSc1nc(Nc2ccccc2)nc(N2CCOCC2)n1)Nc1cc(Cl)ccc1O | inconclusive: 39.8 µM [inhibitor, partial curve, poor fit] | –
3 | Cc1ccnc(NC(=O)c2ccc3c(c2)NC(=O)C(C)S3)c1 (stereo unspecified) | inconclusive: 20 µM [inhibitor, single point] | –
4 | Cc1sc(NC(=O)c2ccccc2)c(C(=O)c2ccccc2)c1C | inactive | –
5 | CCOC(=O)[C@H]1[C@H]2COc3ccccc3[C@@H]2N2C(=O)c3ccc(Cl)cc3NC(=O)[C@@]12C | inactive | –
6 | CCc1ccc(C(=O)NNC(=O)C2CCN(c3ncnc4sc(C)c(C)c34)CC2)cc1 | inconclusive: 31.6 µM [inhibitor, partial curve, poor fit] | –
7 | Cc1cc(C)cc(NC(=S)N2CCN(C(=O)c3ccco3)CC2)c1 | inactive | –
8 | COc1ccc2[nH]c(=O)c(CN(CC3CCCO3)C(=O)Nc3ccc(F)cc3)cc2c1 (stereo unspecified) | inconclusive: 14.1 µM [inhibitor, partial curve, poor fit] | –
9 | Cc1nc([N+](=O)[O-])c(Br)n1CC(=O)c1ccc(Cl)cc1 | – | inconclusive: -32% [inhibitor]
10 | CC(=O)N1CC=C2C(C#N)=C(N)C(C#N)(C#N)C(CCc3ccccc3)C2C1 (stereo unspecified) | inactive | –
11 | CN1OC[C@@H]2CN(C(=O)C(C)(C)C)[C@H](c3cccc(N4CCOCC4)c3)C[C@@H]21 | inconclusive: 2.51 µM [inhibitor, full curve] | –
12 | Cc1ccc2c(c1)Cc1nc3ccccc3nc1-2 | active: 14.1 µM | –
13 | O=C(CN1CC(=O)Oc2ccccc21)OCC(=O)c1ccc(F)cc1 | inconclusive: 14.1 µM [inhibitor, partial curve, poor fit] | –
14 | O=C(Nc1ccccc1)c1ccccc1OCc1ccc(F)cc1 | inconclusive: 1.41 µM [inhibitor, partial curve, poor fit] | –
15 | CCN(CC)S(=O)(=O)c1ccc(C)c(NC(=O)CSc2nc3ccc(C)cc3[nH]2)c1 | inactive | –
16 | O=C(N/N=C/c1cccnc1)c1ccccc1[N+](=O)[O-] | inconclusive: 3.98 µM [inhibitor, full curve] | –
17 | O=C(NC(c1ccccc1)c1ccccc1)c1ccc(S(=O)(=O)C(F)F)cc1 | inactive | –
18 | CN(C(=O)CSc1nc2ccc(NC(=O)c3ccccc3F)cc2s1)c1ccccc1 | inconclusive: 39.8 µM [inhibitor, partial curve, poor fit] | –
19 | O=C(NCc1ccc(F)cc1)c1cc(Sc2ccc(F)cc2F)nc2ccccc12 | inactive | –
20 | O=C(CN1C(=O)c2ccccc2S1(=O)=O)N1CCc2ccccc21 | inconclusive: 0.794 µM [inhibitor, full curve, poor fit] | –
21 | CN(C)S(=O)(=O)n1cc(/C=C(\NC(=O)c2ccccc2Cl)C(=O)NCCCN2CCOCC2)c2ccccc21 | inconclusive: 2 µM [inhibitor, full curve] | –

Row | SMILES | Potency | activity, negative = inhibition
22 | COc1ccccc1N1CCN(C(=O)CN2C(=O)c3ccccc3C2=O)CC1 | inconclusive: 20 µM [inhibitor, single point] | –
23 | Cn1ccc2c(-c3cccc(C=O)c3)cc3c(c21)C1CCC3C1 (stereo unspecified) | inconclusive: 28.2 µM [inhibitor, partial curve, poor fit] | –
24 | COc1cccc(-c2csc(NC(=O)Nc3ccccc3)n2)c1 | inconclusive: 25.1 µM [inhibitor, partial curve, poor fit] | –
25 | Cc1ccc(C(=O)NN2C(=O)C3C(C2=O)C2C=CC3C23CC3)cc1 (stereo unspecified) | – | inconclusive: -31.5% [inhibitor]
26 | CCOC(=O)c1ccc(NC(=O)c2nc(S(=O)(=O)Cc3ccccc3)ncc2Cl)cc1 | inconclusive: 35.5 µM [inhibitor, partial curve, poor fit] | –
27 | COc1ccc(CNC(=O)c2oc3c(c2C)-c2nn(Cc4ccccc4Cl)cc2CC3)cc1 | inconclusive: 25.1 µM [inhibitor, partial curve, poor fit] | –
28 | O=c1c2ccccc2nc2n1C(CSCc1cccc(C(F)(F)F)c1)CS2 (stereo unspecified) | inconclusive: 5.62 µM [inhibitor, partial curve, poor fit] | –
29 | CC[C@H]1c2[nH]c3ccc(C(C)C)cc3c2[C@@H]2CCN3C(=O)CCC[C@H]1[C@H]23 | inactive | –
30 | c1ccc2nc(-c3nc4ccccc4o3)ccc2c1 | inconclusive: 10 µM [inhibitor, partial curve, poor fit] | –
31 | Cc1nn(Cc2c(F)c(F)c(F)c(F)c2F)c(C)c1NC(=O)c1cccc(COc2ccccc2Cl)c1 | inconclusive: 11.2 µM [inhibitor, single point] | –
32 | Cc1cccc(Cl)c1OCCCCn1ccnc1 | inconclusive: 15.8 µM [inhibitor, partial curve] | –
33 | N/C(=N\OC(=O)c1ccc(Cl)cc1Cl)c1ccccn1 | inconclusive: 10 µM [inhibitor, partial curve, poor fit] | –
34 | Cc1cc(NC(=O)CN(C)S(=O)(=O)c2ccc3c(c2)CCC(=O)N3)ccc1Br | inconclusive: 14.1 µM [inhibitor, partial curve, poor fit] | –
35 | Cc1nn2c(-c3cccc(NC(=O)CSc4nc5ccccc5o4)c3)nnc2c2ccccc12 | inactive | –
36 | CC(NC(=O)CNC(=O)C1CCCCC1)c1ccc(S(N)(=O)=O)cc1 (stereo unspecified) | inconclusive: 35.5 µM [inhibitor, single point] | –
37 | Cc1ccc2nc(/C(C#N)=C/c3ccc(-c4cccc(Cl)c4)o3)[nH]c2c1 | inactive | –
38 | Cc1ccc(C(=O)/C=C/Nc2ccccn2)cc1 | inconclusive: 2.51 µM [inhibitor, full curve, poor fit] | –
39 | CCCn1nc(C(=O)Nc2nc(-c3ccccn3)cs2)c2ccccc2c1=O | inactive | –
40 | Cn1c(=O)c2c(nc(SCC(=O)Nc3ccccc3)n2C)n(C)c1=O | inconclusive: 10 µM [inhibitor, partial curve, poor fit] | –
41 | COc1ccccc1C(=O)Nc1nc2ccccc2s1 | inconclusive: 1.78 µM [inhibitor, full curve, poor fit] | –

In the list so far, these have a cyano group:
Row | SMILES | Potency | activity, negative = inhibition
10 | CC(=O)N1CC=C2C(C#N)=C(N)C(C#N)(C#N)C(CCc3ccccc3)C2C1 (stereo unspecified) | inactive | –
37 | Cc1ccc2nc(/C(C#N)=C/c3ccc(-c4cccc(Cl)c4)o3)[nH]c2c1 | inactive | –
